{"source": "patent US20110009628A1", "about": "“Compounds and Compositions for Modulating Lipid Levels and Methods of Preparing Same” (priority 2009, published 2011)", "key": {"[1]": {"tested_on": "PCSK9 mRNA expression in HepG2 cells", "test": "PCSK9 mRNA expression in HepG2 cells, simvastatin versus compound 91 (Example 10)", "type": "cell-based, human", "conditions": "24 hours, FIG. 4B", "method": "(§1) In yet another experiment, HepG2 cells were treated with various compounds for 24 hours at the indicated doses. Total RNA was isolated and 2 μg was used to generate cDNA in a reaction containing random primers and M-MLV at 37° C. for 1 hour in a volume of 25 μL. Real-time PCR was performed on the cDNA using MCEP REALPLEX 2 SYSTEM (Eppendorf) and Universal MasterMix (Applied Biosystems). Human LDLR and GAPDH Pre-Developed TaqMan Assay Reagents (Applied Biosystems) were used to assess the levels of mRNA expressions in HepG2. The levels of LDLR mRNA were normalized to that of GAPDH. Each RNA samples was assayed in triplicate. The abundance of LDLR mRNA in untreated cells was defined as 1, and the amounts of LDLR mRNA from compound-treated cells were plotted relative to that value in FIG. 2B. The data shown are mean±s.d.\n(§2) Total RNA was harvested for quantitative real-time RT-PCR analysis using method described in Examples 5B. The fold activity was derived by dividing the amount of normalized LDLR or PCSK9 mRNA in compound-treated cells over the amount of LDLR or PCSK9 mRNA in untreated control cells."}, "[2]": {"tested_on": "LDLR mRNA expression in HepG2 cells", "test": "LDLR mRNA expression in HepG2 cells, simvastatin versus compound 91 (Example 10)", "type": "cell-based, human", "conditions": "24 hours, FIG. 4A", "method": "as §1, §2"}}, "note": "At least one structure is not confirmed: it was looked up by name or label, or the drawing left a doubt.", "data": [{"smiles": "CCC(C)(C)C(=O)O[C@H]1C[C@@H](C)C=C2C=C[C@H](C)[C@H](CC[C@@H]3C[C@@H](O)CC(=O)O3)[C@H]21", "note": "[simvastatin, reference compound]", "values": [{"measurement": "PCSK9 mRNA expression", "setting": "[1]", "value": "increases"}, {"measurement": "LDLR mRNA expression", "setting": "[2]", "value": "increases"}]}]}
